According to publication PMC3999190:
Results are given in words; binding and its absence hold for the method and conditions named. Binding can be weak; no strength is given. Tags and fused reporters may be left off the sequences shown.

Biological target: MBP-tagged viral p33 protein (the C-terminal portion) (TBSV)
Experiment: pull-down; MBP-tagged p33 portions immobilized on amylose columns, incubated with 15 µg purified His6-Vps4p or His6-Vps4(101-437) for 1 h at 4°C, eluted with 10 mM maltose; anti-His Western blot; both purified

B1: His6-tagged Vps4p purified from E. coli (protein, UniProt P52917 1-437)
chain: MSTGDFLTKGIELVQKAIDLDTATQYEEAYTAYYNGLDYLMLALKYEKNPKSKDLIRAKFTEYLNRAEQLKKHLESEEANAAKKSPSAGSGSNGGNKKISQEEGEDNGGEDNKKLRGALSSAILSEKPNVKWEDVAGLEGAKEALKEAVILPVKFPHLFKGNRKPTSGILLYGPPGTGKSYLAKAVATEANSTFFSVSSSDLVSKWMGESEKLVKQLFAMARENKPSIIFIDEVDALTGTRGEGESEASRRIKTELLVQMNGVGNDSQGVLVLGATNIPWQLDSAIRRRFERRIYIPLPDLAARTTMFEINVGDTPCVLTKEDYRTLGAMTEGYSGSDIAVVVKDALMQPIRKIQSATHFKDVSTEDDETRKLTPCSPGDDGAIEMSWTDIEADELKEPDLTIKDFLKAIKSTRPTVNEDDLLKQEQFTRDFGQEGN
With B1 as the binder, how does the binding read?
Its binding is “binds”.
